Measured data: PubChem BioAssay AID1053208 (Peter MacCallum Cancer Centre, 2014)
Assay: 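Genes whose silencing cuts survival of bone tumour cells only with doxorubicin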 (primary screen). Cell system: mouse osteosarcoma cells, early-passage culture from an engineered mouse model of fibroblastic bone tumour. Reagent: siRNA pool against mouse genes, 40 nM. Time to read-out: about 120 h (48 h before drug, then 72 h with drug). Treatment: doxorubicin 100 nM for 72 h, roughly 30-40% inhibitory dose. Measurement: 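Viability read as ATP luminescence after 72 h of 100 nM doxorubicin or none, duplicate wells averaged, scaled to non-targeting siRNA, then expressed as robust z-scores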. Direction: viability z-score with doxorubicin: higher = more viable cells under doxorubicin; viability z-score without drug: higher = more viable cells with knock-down alone. Active means: 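a pool counts as active when its viability z-score with doxorubicin is -2 or below and its z-score without drug lies between -2 and 2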.
Shown is an unselected part of about 17,000 deposited reagents. 788 of all reagents (4.7%) were called active. 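Calls rest on z-score classes alone; an extra cut-off of viability at most 70% of control was not applied to them.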 Unmarked entries are inactive. Further read-outs or replicates are left out here.

Mtmr10 (GeneID 233315) gave combined z-score class no change with or without drug; viability z-score with doxorubicin 0.22; viability z-score without drug -0.17.
Rpl3l (GeneID 66211) showed combined z-score class no change with or without drug; viability z-score with doxorubicin 0.11; viability z-score without drug 0.67.
For Pias1 (GeneID 56469) the deposit lists combined z-score class no change with or without drug; viability z-score with doxorubicin 0.34; viability z-score without drug -0.34.
Otx2 (GeneID 18424) showed combined z-score class no change with or without drug; viability z-score with doxorubicin -1.12; viability z-score without drug -0.51.
For Cts6 (GeneID 58518), the entry reads combined z-score class no change with or without drug; viability z-score with doxorubicin -0.22; viability z-score without drug -0.51.
For Klhl8 (GeneID 246293), the values are combined z-score class no change with or without drug; viability z-score with doxorubicin 0.56; viability z-score without drug 1.35.
With knock-down of Mill1 (GeneID 266815) the results were combined z-score class no change with or without drug; viability z-score with doxorubicin 1.01; viability z-score without drug 0.51.
For Trim42 (GeneID 78911), the entry reads combined z-score class low cell count with doxorubicin only (active); viability z-score with doxorubicin -2.02; viability z-score without drug -1.52.
With knock-down of Idi1 (GeneID 319554), the screen gave combined z-score class no change with or without drug; viability z-score with doxorubicin -0.9; viability z-score without drug -1.01.
Against Tas2r126 (GeneID 387353), the entry reads combined z-score class low cell count without drug only; viability z-score with doxorubicin 1.24; viability z-score without drug -2.02.
Atrnl1 (GeneID 226255) scored combined z-score class no change with or without drug; viability z-score with doxorubicin 0.9; viability z-score without drug -0.84.
After knock-down of Snta1 (GeneID 20648), the screen gave combined z-score class no change with or without drug; viability z-score with doxorubicin 0.11; viability z-score without drug -0.51.
After knock-down of Npy4r (GeneID 19065), the record shows combined z-score class no change with or without drug; viability z-score with doxorubicin 0.9; viability z-score without drug 1.01.
Depletion of Rpl7l1 (GeneID 66229) resulted in: combined z-score class low cell count without drug only; viability z-score with doxorubicin -1.01; viability z-score without drug -3.2.

4 neighbouring reagents from above, quoted:
Tas2r126 (GeneID 387353) → combined z-score class: low cell count without drug only; viability z-score with doxorubicin: 1.24; viability z-score without drug: -2.02
Atrnl1 (GeneID 226255) → combined z-score class: no change with or without drug; viability z-score with doxorubicin: 0.9; viability z-score without drug: -0.84
Snta1 (GeneID 20648) → combined z-score class: no change with or without drug; viability z-score with doxorubicin: 0.11; viability z-score without drug: -0.51
Npy4r (GeneID 19065) → combined z-score class: no change with or without drug; viability z-score with doxorubicin: 0.9; viability z-score without drug: 1.01

Continued.
Krtap13 (GeneID 16699) gave combined z-score class no change with or without drug; viability z-score with doxorubicin -1.24; viability z-score without drug -1.18.
Catsper3 (GeneID 76856) showed combined z-score class no change with or without drug; viability z-score with doxorubicin -1.35; viability z-score without drug -0.67.
Tmco6 (GeneID 71983) showed combined z-score class low cell count without drug only; viability z-score with doxorubicin 0.67; viability z-score without drug -7.25.
With knock-down of Hk1 (GeneID 15275), the screen gave combined z-score class no change with or without drug; viability z-score with doxorubicin 1.57; viability z-score without drug 0.84.
Against Tlk1 (GeneID 228012) the deposit lists combined z-score class low cell count with doxorubicin only (active); viability z-score with doxorubicin -2.02; viability z-score without drug -0.17.
Depletion of Iqce (GeneID 74239) gave: combined z-score class no change with or without drug; viability z-score with doxorubicin -0.79; viability z-score without drug 1.18.
With knock-down of Klhl11 (GeneID 217194), the screen gave combined z-score class low cell count with doxorubicin only (active); viability z-score with doxorubicin -2.02; viability z-score without drug 1.01.
Knock-down of Tmco5a (GeneID 67356) came out at: combined z-score class no change with or without drug; viability z-score with doxorubicin -0.45; viability z-score without drug 0.84.
Against Myo5b (GeneID 17919), the entry reads combined z-score class no change with or without drug; viability z-score with doxorubicin 0; viability z-score without drug -1.18.
Sorcs3 (GeneID 66673) gave combined z-score class no change with or without drug; viability z-score with doxorubicin -0.45; viability z-score without drug -0.84.
Against Vmn1r29 (GeneID 113859), the values are combined z-score class no change with or without drug; viability z-score with doxorubicin 0; viability z-score without drug -0.51.
Tmem229a (GeneID 319832) gave combined z-score class no change with or without drug; viability z-score with doxorubicin 0.45; viability z-score without drug 1.35.
For Cebpb (GeneID 12608), the entry reads combined z-score class no change with or without drug; viability z-score with doxorubicin 1.12; viability z-score without drug 1.35.
Dmbx1 (GeneID 140477) scored combined z-score class low cell count with doxorubicin only (active); viability z-score with doxorubicin -2.36; viability z-score without drug -0.51.
After knock-down of Trmt2b (GeneID 215201), the record shows combined z-score class no change with or without drug; viability z-score with doxorubicin 0.34; viability z-score without drug 0.17.
With knock-down of Bco1 (GeneID 63857), the screen gave combined z-score class no change with or without drug; viability z-score with doxorubicin -0.67; viability z-score without drug -0.51.
Ttl (GeneID 69737) scored combined z-score class no change with or without drug; viability z-score with doxorubicin -1.24; viability z-score without drug -0.84.
Epha7 (GeneID 13841) showed combined z-score class no change with or without drug; viability z-score with doxorubicin 0.34; viability z-score without drug 0.17.
Pdlim2 (GeneID 213019) gave combined z-score class no change with or without drug; viability z-score with doxorubicin -0.9; viability z-score without drug -1.01.
Fcgrt (GeneID 14132) scored combined z-score class no change with or without drug; viability z-score with doxorubicin -0.22; viability z-score without drug 0.67.
After knock-down of AI987944 (GeneID 233168) the results were combined z-score class no change with or without drug; viability z-score with doxorubicin 1.35; viability z-score without drug 0.67.
For Cenpc1 (GeneID 12617), the values are combined z-score class no change with or without drug; viability z-score with doxorubicin 0.22; viability z-score without drug 0.84.
